According to patent publication US7547679B2, “Ether linked macrolides useful for the treatment of microbial infections” (GlaxoSmithKline istrazivacki center Zagreb d.o.o, priority 2005, dated 2009):
Some of these results come from one statement about several compounds together. At least one structure is not confirmed: it was looked up by name or label, or the drawing left a doubt.

Key:
sensitive S. pneumoniae = assay: MIC, microtiter broth serial dilution test, sensitive S. pneumoniae; type: cell-based, Streptococcus pneumoniae; details: sensitive strain
sensitive S. pyogenes = assay: MIC, microtiter broth serial dilution test, sensitive S. pyogenes; type: cell-based, Streptococcus pyogenes; details: sensitive strain
E. faecalis = assay: MIC, microtiter broth serial dilution test, E. faecalis; type: cell-based, Enterococcus faecalis
M. catarrhalis = assay: MIC, microtiter broth serial dilution test, M. catarrhalis; type: cell-based, Moraxella catarrhalis
[1] = test system: erythromycin resistant strain of Streptococcus pneumoniae; assay: MIC, microtiter broth serial dilution test, erythromycin resistant S. pneumoniae; type: cell-based
[2] = test system: erythromycin resistant strain of Streptococcus pyogenes; assay: MIC, microtiter broth serial dilution test, erythromycin resistant S. pyogenes; type: cell-based

Compound: CC[C@H]1OC(=O)[C@H](C)[C@@H](O[C@H]2C[C@@](C)(OC)[C@@H](OCCS(=O)(=O)CCNCCCc3ccc4c(c3)c(=O)c(C(=O)O)cn4N(C)C)[C@H](C)O2)[C@H](C)[C@@H](O[C@@H]2O[C@H](C)C[C@H](N(C)C)[C@H]2O)[C@](C)(OC)C[C@@H](C)C(=O)[C@H](C)[C@H]2OC(=O)O[C@@]21C [Example 20, 4″-O-(2-{[2-({3-[3-Carboxy-1-(dimethylamino)-4-oxo-1,4-dihydro-6-quinolinyl]propyl}amino)ethyl]sulfonyl}ethyl)-6-O-methyl erythromycin A 11,12-carbonate]
- MIC against sensitive S. pneumoniae (sensitive S. pneumoniae): ≤ 0.125 mg/L
- MIC against sensitive S. pyogenes (sensitive S. pyogenes): ≤ 0.125 mg/L
- MIC against E. faecalis (E. faecalis): ≤ 1 mg/L
- MIC against M. catarrhalis (M. catarrhalis): ≤ 1 mg/L
- MIC against erythromycin resistant strain of Streptococcus pneumoniae [1]: ≤ 0.25 mg/L
- MIC against erythromycin resistant strain of Streptococcus pyogenes [2]: ≤ 0.25 mg/L

Compound: 4″-O-{2-[(2-{[3-(3-Carboxy-1-ethyl-4-oxo-1,4-dihydro-6-quinolinyl)-propyl]oxy}ethyl)-amino]ethyl}-6-O-methyl-erythromycin A [Example 6]
- MIC against sensitive S. pneumoniae (sensitive S. pneumoniae): ≤ 0.125 mg/L
- MIC against sensitive S. pyogenes (sensitive S. pyogenes): ≤ 0.125 mg/L
- MIC against E. faecalis (E. faecalis): ≤ 1 mg/L
- MIC against M. catarrhalis (M. catarrhalis): ≤ 1 mg/L
- MIC against erythromycin resistant strain of Streptococcus pneumoniae [1]: ≤ 0.25 mg/L
- MIC against erythromycin resistant strain of Streptococcus pyogenes [2]: ≤ 0.25 mg/L

Compound: CC[C@H]1OC(=O)[C@H](C)[C@@H](O[C@H]2C[C@@](C)(OC)[C@@H](OCCCOCCCOCC=Cc3ccc4c(c3)c(=O)c(C(=O)O)cn4C3CC3)[C@H](C)O2)[C@H](C)[C@@H](O[C@@H]2O[C@H](C)C[C@H](N(C)C)[C@H]2O)[C@](C)(O)C[C@@H](C)CN(C)[C@H](C)[C@@H](O)[C@]1(C)O [Example 12, 4″-O-(3-{3-[3-(3-Carboxy-1-cyclopropyl-4-oxo-1,4-dihydro-quinolin-6-yl)-allyloxy]-propoxy}-propyl)-azithromycin]
- MIC against sensitive S. pneumoniae (sensitive S. pneumoniae): ≤ 0.125 mg/L
- MIC against sensitive S. pyogenes (sensitive S. pyogenes): ≤ 0.125 mg/L
- MIC against E. faecalis (E. faecalis): ≤ 1 mg/L
- MIC against M. catarrhalis (M. catarrhalis): ≤ 1 mg/L
- MIC against erythromycin resistant strain of Streptococcus pneumoniae [1]: ≤ 0.25 mg/L
- MIC against erythromycin resistant strain of Streptococcus pyogenes [2]: ≤ 0.25 mg/L

Compound: CC[C@H]1OC(=O)[C@H](C)[C@@H](O[C@H]2C[C@@](C)(OC)[C@@H](OCCCNCCOCCOCCNc3cc4c(=O)c(C(=O)O)cn(C5CC5)c4cc3Cl)[C@H](C)O2)[C@H](C)[C@@H](O[C@@H]2O[C@H](C)C[C@H](N(C)C)[C@H]2O)[C@](C)(O)C[C@@H](C)CN(C)[C@H](C)[C@H]2OC(=O)O[C@@]21C [Example 4, 4″-O-[3-(2-{2-[2-(3-Carboxy-7-chloro-1-cyclopropyl-4-oxo-1,4-dihydro-quinolin-6-ylamino)-ethoxy]-ethoxy}-ethylamino)-propyl]-azythromycin 11,12-cyclic carbonate]
- MIC against sensitive S. pneumoniae (sensitive S. pneumoniae): ≤ 0.125 mg/L
- MIC against sensitive S. pyogenes (sensitive S. pyogenes): ≤ 0.125 mg/L
- MIC against E. faecalis (E. faecalis): ≤ 1 mg/L
- MIC against M. catarrhalis (M. catarrhalis): ≤ 1 mg/L
- MIC against erythromycin resistant strain of Streptococcus pneumoniae [1]: ≤ 0.25 mg/L
- MIC against erythromycin resistant strain of Streptococcus pyogenes [2]: ≤ 0.25 mg/L
